In paper PMC10559228:
These are yes or no findings as the source states them, for the method shown. Binding seen in cells or lysates may run through a third protein. Some results given as binding are weak or reduced against the parent protein; the word gives no strength.

Amino acid sequences for entries named in this document (tags omitted).
UniProt Q9Y463: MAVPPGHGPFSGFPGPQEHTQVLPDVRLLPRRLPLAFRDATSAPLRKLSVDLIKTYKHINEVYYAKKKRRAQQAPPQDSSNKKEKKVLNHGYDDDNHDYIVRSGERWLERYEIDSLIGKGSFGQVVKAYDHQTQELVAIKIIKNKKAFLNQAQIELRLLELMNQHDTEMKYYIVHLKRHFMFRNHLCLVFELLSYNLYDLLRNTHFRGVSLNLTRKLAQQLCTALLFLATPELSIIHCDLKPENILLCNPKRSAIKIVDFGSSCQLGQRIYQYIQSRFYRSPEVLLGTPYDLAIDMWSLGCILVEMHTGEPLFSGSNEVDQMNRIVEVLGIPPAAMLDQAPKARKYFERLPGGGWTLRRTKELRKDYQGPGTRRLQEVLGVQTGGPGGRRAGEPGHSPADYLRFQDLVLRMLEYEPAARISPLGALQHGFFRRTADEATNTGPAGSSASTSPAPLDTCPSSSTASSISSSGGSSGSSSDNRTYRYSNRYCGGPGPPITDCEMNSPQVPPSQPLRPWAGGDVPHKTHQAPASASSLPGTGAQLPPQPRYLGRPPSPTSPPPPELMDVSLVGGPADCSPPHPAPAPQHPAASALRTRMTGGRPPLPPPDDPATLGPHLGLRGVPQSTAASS
UniProt Q9NYF3: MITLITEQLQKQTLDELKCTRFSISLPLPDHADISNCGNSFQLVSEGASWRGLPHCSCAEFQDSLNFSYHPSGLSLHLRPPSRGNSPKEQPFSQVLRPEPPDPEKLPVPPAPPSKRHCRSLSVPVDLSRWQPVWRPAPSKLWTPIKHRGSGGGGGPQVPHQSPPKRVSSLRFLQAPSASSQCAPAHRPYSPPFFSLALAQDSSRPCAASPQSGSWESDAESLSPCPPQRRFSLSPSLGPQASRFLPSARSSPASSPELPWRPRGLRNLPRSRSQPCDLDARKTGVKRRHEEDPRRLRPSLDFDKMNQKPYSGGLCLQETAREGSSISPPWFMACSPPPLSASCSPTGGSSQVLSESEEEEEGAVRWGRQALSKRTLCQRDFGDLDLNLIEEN

Target: 3xFLAG-DYRK1B(WT) (UniProt Q9Y463)
Assay: co-IP; 3xFLAG-DYRK1A (WT or deletion mutants) or 3xFLAG-DYRK1B co-expressed with GFP-FAM53C in COS7; extracts with anti-FLAG resin 12 h at 4°C; Western blot with anti-GFP; in Fig 9 cells with or without Geldanamycin (2.5 μM 4 h)

Substance: GFP-FAM53C (from UniProt Q9NYF3 1-392)
- binding: binds
